Test results: PubChem BioAssay AID2417 (National Center for Advancing Translational Sciences (NCATS), 2010)
Several values for one entry are separate records, joined by “and”; a condition that tells them apart may be missing. Identical values can stand only once. Among all 140,000 compounds or so, about 4,300 (3.1%) were called active. Inconclusive results, whose numbers are uncertain, are shown with a selection of clear calls.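 How the source made its calls: active means readout at or below -70, meaning at least 70% loss of cells showing the perinucleolar compartment, a nuclear body marking cancer cells; inconclusive means readout between -30 and a set limit; inactive means the rest.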

Assay: High Content Assay for Compounds that inhibit the Assembly of the Perinucleolar Compartment;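 further: plate controls were DMSO wells for no effect and camptothecin positive control wells for full effect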
Details: PC3M PTB-GFP, PNC prevalence imaging, 16 h; at 10 µM; stronger effect = lower value
How it was run: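 Read-out is percentage of cells bearing a perinucleolar compartment, from automated 20x imaging of fixed, Hoechst-stained PC3M PTB-GFP cells. Cells were seeded 4 h, then exposed 16 h to compound (23 nl of library stock) in duplicate plates.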

Compound | activity change (PNC), negative = inhibition
O=C(COC(=O)c1ccc(Br)o1)Nc1ccc(S(=O)(=O)N2CCCC2)cc1 | active: -80.1%
O=C(Cc1ccc(-c2ccccc2)cc1)NCc1ccccc1 | inconclusive: -63.8%
c1ccc(-c2ncnc3cc4n(c23)CCC4)cc1 | inconclusive: -50.9%
COc1cc(Cl)c(C)cc1NC(=O)CSC | inconclusive: -52.9%
COc1ccc(Nc2nc(-c3cccs3)cs2)c(OC)c1 | inactive: -2.41%
COc1ccc(OC)c(CNc2nc3ccccc3n2CCN2CCCCC2)c1 | inactive: 3.18%
O=C(Nc1nnc(SCc2ccc(Cl)cc2)s1)C1CCCO1 (stereo not given) | inconclusive: -32.7%
CC(=O)c1sc(NC(=O)C=C(C)C)nc1C | inconclusive: -62%
Cc1ccc2[nH]c3c(c2c1)CN(C(=O)CN1CCN(c2ccccn2)CC1)CC3 | inactive: -12.7%
Nc1cc(=O)[nH]c(=S)n1-c1cccc(C(F)(F)F)c1 | inactive: 56.8%
CCOC(=O)c1c(-c2ccc(C)o2)csc1NC(=O)CN1CCN(CC)CC1 | inconclusive: -62.4%
Cc1ccc(/C=C2/NC(=O)N(Cc3ccccc3)C2=O)s1 | inconclusive: -47.6%
CCc1nnc(NC(=O)CSc2nc3c(C)cccc3[nH]2)s1 | inconclusive: -39.9%
COc1cc(C(=O)NNC(=O)NC2CCCCC2)cc(OC)c1OC | active: -120%
COc1ccccc1/C=N/NC(=O)CCn1cnc2ccccc21 | inconclusive: -42%
CCCC(C)C(=O)Nc1nc(C)c(-c2csc(Nc3ccccc3OC)n2)s1 (stereo not given) | inconclusive: -33.7%
CCc1nc(OCc2ccccc2)c2sc3nc4c(cc3c2n1)COC(C)(C)C4 | inconclusive: -37.1%
O=C(c1cccc(F)c1)N1CCN(S(=O)(=O)c2ccccc2)CC1 | inconclusive: -63.8%
CN(C)c1nc(N)nc(CSc2nc3cc(Cl)ccc3o2)n1 | inconclusive: -55.9%
CCOC(=O)C1CCCN(c2c(NCCCN(CC)c3ccccc3)c(=O)c2=O)C1 (stereo not given) | inconclusive: -62.7%
CC1CCCCC1NC(=O)COC(=O)c1c2c(nc3ccccc13)/C(=C/c1ccco1)CC2 (stereo not given) | inactive: 11.2%
COC(=O)COc1ccc(S(=O)(=O)NCc2ccco2)cc1Cl | active: -103%
COCCOC(=O)C1=C(C)Nc2ncnn2C1c1ccccc1 (stereo not given) | inconclusive: -78.4%

Compound | activity change (PNC), negative = inhibition
COc1ccc(N2CCN(Cc3nc4c(c(=O)[nH]c(=O)n4C)n3CC(C)=O)CC2)cc1 | active: -90.2%
Cc1ccc(Oc2nc(-c3ccccc3)ncc2S(=O)(=O)c2ccc(C)cc2)cc1 | inconclusive: -50.4%
O=C1c2ccsc2SCCN1Cc1ccc(Cl)cc1Cl | inconclusive: -58.9%
COC(=O)c1c(C(=O)OC)c(-c2ccc(Cl)c(Cl)c2)n2c1CCC2 | inconclusive: -45.4%
Cc1csc(SCC(=O)c2cc(C)n(Cc3cccs3)c2C)n1 | inactive: -9.64%
Cc1ccc(F)cc1NCC(=O)Nc1ccc(Br)cc1 | inconclusive: -64.5%
Cc1ccc(-n2nc3cc(Cl)c(NC(=O)c4ccco4)cc3n2)cc1 | inconclusive: -64.2%
COc1cc(NS(=O)(=O)c2ccc(Cl)cc2)c(C(=O)O)cc1OC | inactive: 28.9%
C(=N\N1CCN(Cc2ccccc2)CC1)/c1cccnc1 | active: -116%
COC(=O)C1=C(C)Nc2nnnn2C1c1ccc(Cl)cc1Cl (stereo not given) | inconclusive: -62.7%
CC(C)CCn1c(N)c(S(=O)(=O)c2cccs2)c2nc3ccccc3nc21 | inconclusive: -30.5%
N=C1C(c2ccccc2)=C(O)CN1c1cccc(S(=O)(=O)Nc2cccc(C(F)(F)F)c2)c1 | inactive: 46.5%
O=C(Oc1ccccc1C(=O)Oc1ccccc1)c1ccco1 | inconclusive: -32%
Cc1noc(C)c1S(=O)(=O)N1CCCC(C(=O)NCC2CCCO2)C1 (stereo not given) | inconclusive: -30.6%
CCN1CCN(C(=O)c2cc(-c3cccnc3)nc3ccc(Br)cc23)CC1 | active: -107%
O=C(CCC1CCCCC1)NCc1ccccn1 | inconclusive: -48.9%
CC(C)(C)NC(=O)CSc1nnc(NC(=O)CCn2cnc3ccccc3c2=O)s1 | active: -122%
CCCN1CCN(CCCNC(=O)CCNC(=O)Cn2ccc3ccccc3c2=O)CC1 | inconclusive: -45.4%
CC(NC(=O)c1ccc(F)cc1)C(c1cccs1)N1CCN(C)CC1 (stereo not given) | active: -116%
c1ccc(CNCC2COc3ccccc3O2)cc1 (stereo not given) | inconclusive: -69%
Cc1nc(C(F)(F)F)c(C(=O)NC(=O)Nc2ccccc2)s1 | inconclusive: -40.6%
N=c1oc2ccc3ccccc3c2cc1-c1nc(-c2ccccc2)cs1 | inconclusive: -39.9%
COc1ccccc1Nc1nc(C)cs1 | inconclusive: -31.8% and inconclusive: -40.6%

Compound | activity change (PNC), negative = inhibition
CCOc1ccc(-n2cccc2C=O)cc1 | inactive: 6.14%
Cc1noc(NS(=O)(=O)c2ccc(N)cc2)c1C | inconclusive: -44.9%
Cc1cc(NC(=O)COC(=O)c2cc3c(s2)CCC(C)C3)no1 (stereo not given) | inconclusive: -38.4%
CC(C)(C)n1nnnc1C(c1ccc(Cl)cc1)N(Cc1cccnc1)Cc1ccco1 (stereo not given) | inconclusive: -39.3%
Cc1cccc(-c2nc3ccccc3c(=O)n2NC(=O)/C=C/c2ccc([N+](=O)[O-])cc2)c1 | inactive: -23%
Cc1noc(COc2ccccc2OCC(O)CNC(C)(C)C)n1 (stereo not given) | inactive: -3.16%
O=C(CCC1CCCCC1)Nc1ncn[nH]1 | inconclusive: -79.5%
CCc1nnc(NC(=O)c2ccc(S(=O)(=O)NC3CCCCC3)cc2)s1 | inconclusive: -72.5%
CCCOc1ccc(/C(O)=C2\C(=O)C(=O)N(CCCOC)C23C(=O)N(C)c2ccccc23)cc1 (stereo not given) | active: -106%
COc1cc(/C=N/NC(=O)c2sc(N)c(C#N)c2C)cc(Br)c1O | inactive: -2.48%
CC(C)CCn1cnc2c([nH]c3cccc(Cl)c32)c1=O | inconclusive: -59.6%
CC(NC(=O)COc1ccc(Br)cc1)C(=O)O (stereo not given) | inactive: 29.2%
Cc1oc(-c2ccc(Cl)cc2)nc1CN1CCCC(C(=O)N2CCN(C(=O)c3ccco3)CC2)C1 (stereo not given) | inconclusive: -33.3%
Cc1cc(Nc2nnnn2-c2ccccc2)n(-c2ccc(Cl)cc2)n1 | inconclusive: -48.1%
CCOC(=O)/C(C#N)=C1\C=CN(C)C(C)=N1 | active: -100%
O=C(CNC(=O)c1ccc(N2C(=O)c3ccccc3C2=O)cc1)OCC(=O)c1ccc(Cl)cc1 | inactive: 87.1%
CCOC(=O)c1[nH]c(C)c(CCC(=O)O)c1C | inconclusive: -58.5%
COc1cc(C2Nc3ccccc3C(=O)N2c2ccccc2OC)ccc1O (stereo not given) | inconclusive: -46.2%
COc1ccc2[nH]c(C)c(C(=O)CN3CC(C)OC(C)C3)c2c1 (stereo not given) | inconclusive: -46.9%
Cc1ccc(C2(C)CC(C)(C)N(C(=O)CSc3nnc(C)s3)c3ccccc32)cc1 (stereo not given) | inconclusive: -51.4%
O=C(CN1C(=O)c2ccccc2C1=O)Nc1cccc(S(=O)(=O)Nc2ccccc2Cl)c1 | inactive: 13.8%
O=[N+]([O-])c1ccc(N2CCN(S(=O)(=O)c3ccccc3[N+](=O)[O-])CC2)cc1N1CCc2ccccc2C1 | inconclusive: -44.1%
CC(Sc1nc2ccccc2c(=O)n1Cc1ccco1)C(=O)c1ccccc1 (stereo not given) | inconclusive: -57.9%

Compound | activity change (PNC), negative = inhibition
CCOc1ccccc1NC(=O)N1CCC(C(=O)c2ccc(F)cc2)CC1 | inactive: 22.7%
CC1=NN(C(=O)c2c(Br)c(C)nn2C)C(O)(C(F)(F)F)C1 (stereo not given) | inactive: -15.7%
O=C(O)CCCCCn1c(O)c(C=C2N=c3ccccc3=N2)sc1=S | inconclusive: -73.3%
Cc1ccccc1NC(=S)NC1CCN(Cc2ccccc2)CC1 | inconclusive: -44.2%
CCOc1cccc(-c2nnc(SCC(=O)Nc3ccc(OC)c(OC)c3)n2N)c1 | active: -108%
CCOC(=O)CSc1nc(C(C)C)nc2ccccc12 | inactive: 2.08%
Nc1c(N=Nc2cccc(Cl)c2)c(=O)[nH]n1-c1ccccc1 | inactive: 98.8%
CC(=O)OC1COC(n2ccc3cc([N+](=O)[O-])ccc32)C(OC(C)=O)C1OC(C)=O (stereo not given) | inconclusive: -53.1%
COC(=O)C1=C(C)N(CCc2ccccc2)C(=O)/C1=C\c1ccco1 | inconclusive: -67.5%
CCOC(=O)c1c(C)[nH]c(C(=O)Cn2c(=O)c3c(ncn3CC)n(Cc3ccccc3)c2=O)c1C | inactive: 18.6%
O=C(COc1ccccc1-c1ccccc1)N/N=C/c1ccc2ccccc2c1 | active: -116%
Cc1ccc(C)c(NC(=O)CSc2nnc(C)c(=O)n2N)c1 | inactive: 5.98%
COc1cc(/C=C/C(=O)OCC(=O)NC(=O)NC23CC4CC(CC(C4)C2)C3)ccc1OCC#N | inconclusive: -72.3%
CCC(C)c1ccc(NC(=O)C2CCN(c3ccc(C(F)(F)F)cn3)CC2)cc1 (stereo not given) | inconclusive: -58.7%
Cc1ccc(C)c(-n2c(SCC(=O)Nc3nnc(C)s3)nnc2-c2ccoc2C)c1 | inconclusive: -42.8%
CC1CCCC(NC(=O)COC(=O)CCC2CCCC2)C1C (stereo not given) | inconclusive: -70.3%
CCOC(=O)C1CCCN(S(=O)(=O)c2ccc(OC)cc2)C1 (stereo not given) | inactive: 24.6%
N#CC1=C(N)SC(N)=C(C#N)C1c1ccc(C(F)(F)F)cc1 | active: -127%
Cc1cc(C)cc(NC(=O)CN2CCC(NC(=O)Cc3ccccc3)CC2)c1 | inconclusive: -59.6%
Cc1sc2nc3n(c(=O)c2c1C)NC(=O)CC3 | active: -100%
COc1ccc(CN2C(=O)c3cccnc3C2Nc2ccc(C)cc2)cc1 (stereo not given) | inactive: -18.5%
